Experimental data as given in patent US8268823B2, “Medical use of triazine derivatives” (University of Greenwich, priority 2006, dated 2012).

Each compound was assayed on sodium channel (assay: veratrine-evoked uptake of [14C]guanidine into rat forebrain synaptosomes ([14C]guanidine flux)). Settings: Table 8.
Type: biochemical
Description: The screening strategy is designed to select compounds with appropriate sodium channel blocking activity and low side effect liability. To this end all compounds are processed through the primary sodium channel assay (veratrine-evoked uptake of [^14C]guanidine into rat forebrain synaptosomes) and IC50 values computed from generated concentration-effect curves.
Synaptosomes (heavy and light mitochondrial fraction containing synaptosomes) were prepared by transferring the forebrain (of known wet weight) to a glass Potter vessel to which 9 volumes ice-cold 0.25M sucrose had been added and homogenising, using a teflon pestle, by 8 ‘up and down strokes’ of a Braun Potter S motor driven homogeniser set to 900 rpm. The resulting homogenate was centrifuged at 1036×g at 4° for 10 min and the supernatant collected. The remaining pellet was resuspended, as above, in fresh ice-cold 0.25M sucrose and the centrifugation step repeated. The supernatant fractions were pooled and centrifuged at 40,000×g (average) at 4° for 15 min and the resulting pellet resuspended in the appropriate assay buffer at a concentration of 20-25 mg wet weight per ml appropriate assay buffer.
Both assays were carried out using 14 ml polypropylene test tubes to which a range of concentrations of the compounds under test were added.
Compounds under test were pre-incubated for 10 min at 30° in incubation buffer (50 mM pH 7.4 HEPES (adjusted to pH 7.4 with Tris base), 130 mM choline chloride, 5.5 mM D-glucose, 0.8 mm MgSO4 and 5 mM KCl) containing 7.5 mg original wet weight of tissue and 100 μg veratrine HCl in a final volume of 0.5 ml. […] A further 2×5 ml of ice-cold wash buffer was added to each tube and the vacuum filtration step repeated. The GF/C glass fibre filters were transferred to minivials and 4 ml Picofluor^40 liquid scintillant added using a Brandel™ deposit/dispense system. Radioactivity was measured using a Beckman Liquid Scintillation Counter.
Data are presented as mean±sem of number of experiments indicated in brackets.

Compound | % Specific (uptake of [14C]guanidine)
N=c1nc(N)c(-c2cc(Cl)cc(Cl)c2Cl)nn1CCC(F)(F)F [Example 56, 5(3)-Amino-6-(2,3,5-trichlorophenyl)-2,3(2,5)-dihydro-3(5)-imino-2-(3,3,3-trifluoropropyl)-1,2,4-triazine methanesulfonate] | 72.9%
CCn1nc(-c2cc(Cl)cc(Cl)c2)c(N)nc1=N [Example 54, 5(3)-Amino-6-(3,5-dichlorophenyl)-2,3(2,5)-dihydro-3(5)-imino-2-ethyl-1,2,4-triazine methanesulfonate] | 65.7%
Nc1nc(N)c(-c2cc(Cl)cc(Cl)c2Cl)c(CF)n1 [BW202W92, reference compound] | 55.9%
Cn1nc(-c2cc(Cl)cc(Cl)c2)c(N)nc1=N [Example 53, 5(3)-Amino-6-(3,5-dichlorophenyl)-2,3(2,5)-dihydro-3(5)-imino-2-methyl-1,2,4-triazine methanesulfonate] | 72.2%
N=c1nc(N)c(-c2cccc(Cl)c2Cl)nn1CCF [Example 52, 5(3)-Amino-6-(2,3-dichlorophenyl)-2,3(2,5)-dihydro-3(5)-imino-2-(2-fluoroethyl)-1,2,4-triazine methanesulfonate] | 64.9%
N=c1nc(N)c(-c2cc(Cl)cc(Cl)c2Cl)nn1CCF [Example 55, 5(3)-Amino-6-(2,3,5-trichlorophenyl)-2,3(2,5)-dihydro-3(5)-imino-2-(2-fluoroethyl)-1,2,4-triazine methanesulfonate] | 67.9%
CCn1nc(-c2cc(Cl)cc(Cl)c2Cl)c(N)nc1=N [Example 50] | 66.8%
Nc1nnc(-c2ccccc2OC(F)(F)F)c(N)n1 [Example 51, 3,5-Diamino-6-(2-trifluoromethoxyphenyl)-1,2,4-triazine] | 72.2%
